Data on two substances can be found in PMC8266045.

Sequences of proteins named here, by UniProt entry; tags and fusion partners are left off.
UniProt P20700: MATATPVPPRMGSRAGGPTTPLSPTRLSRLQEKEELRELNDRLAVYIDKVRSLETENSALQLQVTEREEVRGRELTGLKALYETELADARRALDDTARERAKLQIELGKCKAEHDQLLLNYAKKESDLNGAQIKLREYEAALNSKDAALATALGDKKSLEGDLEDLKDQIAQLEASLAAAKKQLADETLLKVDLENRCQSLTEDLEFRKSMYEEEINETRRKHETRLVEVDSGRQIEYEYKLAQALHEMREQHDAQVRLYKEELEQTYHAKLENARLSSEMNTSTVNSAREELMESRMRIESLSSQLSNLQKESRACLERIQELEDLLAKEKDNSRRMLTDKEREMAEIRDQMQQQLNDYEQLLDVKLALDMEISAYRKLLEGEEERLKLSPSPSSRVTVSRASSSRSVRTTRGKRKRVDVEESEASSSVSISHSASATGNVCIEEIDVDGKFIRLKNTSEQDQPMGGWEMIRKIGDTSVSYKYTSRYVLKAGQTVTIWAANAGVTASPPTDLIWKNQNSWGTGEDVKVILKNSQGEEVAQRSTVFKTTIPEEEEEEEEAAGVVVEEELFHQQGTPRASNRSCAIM
UniProt Q05397: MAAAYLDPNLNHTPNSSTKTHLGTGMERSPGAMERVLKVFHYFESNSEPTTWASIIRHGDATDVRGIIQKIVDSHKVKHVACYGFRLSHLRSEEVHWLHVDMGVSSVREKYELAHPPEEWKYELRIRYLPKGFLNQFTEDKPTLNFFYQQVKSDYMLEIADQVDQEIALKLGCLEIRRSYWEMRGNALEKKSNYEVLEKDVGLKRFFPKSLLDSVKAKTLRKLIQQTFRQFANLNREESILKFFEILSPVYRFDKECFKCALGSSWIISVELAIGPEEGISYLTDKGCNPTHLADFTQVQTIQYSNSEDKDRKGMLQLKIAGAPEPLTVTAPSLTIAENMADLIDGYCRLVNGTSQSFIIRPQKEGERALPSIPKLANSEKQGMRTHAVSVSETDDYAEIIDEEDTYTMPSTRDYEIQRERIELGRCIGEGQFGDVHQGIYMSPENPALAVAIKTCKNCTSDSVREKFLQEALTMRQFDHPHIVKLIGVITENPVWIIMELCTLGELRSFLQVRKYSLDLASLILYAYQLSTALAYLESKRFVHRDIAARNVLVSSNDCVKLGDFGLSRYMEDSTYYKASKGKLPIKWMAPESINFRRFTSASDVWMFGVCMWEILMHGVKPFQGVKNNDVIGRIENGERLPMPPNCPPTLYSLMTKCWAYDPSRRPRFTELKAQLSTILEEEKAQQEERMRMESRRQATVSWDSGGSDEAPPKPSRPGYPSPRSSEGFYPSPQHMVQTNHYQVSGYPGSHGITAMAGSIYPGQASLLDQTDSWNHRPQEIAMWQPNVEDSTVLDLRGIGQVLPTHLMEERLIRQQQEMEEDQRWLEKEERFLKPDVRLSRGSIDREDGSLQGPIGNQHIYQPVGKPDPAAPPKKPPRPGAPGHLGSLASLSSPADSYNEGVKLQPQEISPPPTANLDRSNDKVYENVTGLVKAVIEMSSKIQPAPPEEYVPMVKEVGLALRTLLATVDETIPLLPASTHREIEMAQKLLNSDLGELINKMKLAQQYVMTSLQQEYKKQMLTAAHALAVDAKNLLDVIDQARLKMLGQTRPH

No constants are given. Whether binding was seen depends on the method and setting. In cells and extracts the contact can be indirect. Some entries that bind do so weakly or less than the wild type.

The target in assay [1] is laminB1 (human (endogenous in MDA-MB-231)) (UniProt P20700). As to the kind of experiment: co-IP; MDA-MB-231 lysate in RIPA buffer (50mM Tris HCl pH 8, 150 mM NaCl, 1% NP-40, 0.5% sodium deoxycholate); immunoprecipitated overnight at 4°C with laminB1 antibody; immunoblot with anti FAK and anti laminB1; IgG as negative control. (In western blotting, separated proteins are transferred to a membrane and probed.)

Assay [2] addresses Focal Adhesion Kinase (human (endogenous in MDA-MB-231)) (UniProt Q05397). As to the kind of experiment: co-IP; MDA-MB-231 lysate in RIPA buffer (50mM Tris HCl pH 8, 150 mM NaCl, 1% NP-40, 0.5% sodium deoxycholate); immunoprecipitated overnight at 4°C with FAK antibody; immunoblot with anti FAK and anti laminB1; IgG as negative control.

For the substance “Focal Adhesion Kinase (from UniProt Q05397 1-1052)”, the binding entry in assay [1] is listed as “binds”.
As to laminB1 (from UniProt P20700 1-586), in assay [2], the binding entry is recorded as “binds”.
